Data reported in the supplement of paper PMC10849652.
The other results are listed elsewhere or left out.

Sequences of proteins named here, by UniProt entry; tags and fusion partners are left off. A change or cut given only in a name is not applied to a line headed by its entry.
UniProt Q6NW29: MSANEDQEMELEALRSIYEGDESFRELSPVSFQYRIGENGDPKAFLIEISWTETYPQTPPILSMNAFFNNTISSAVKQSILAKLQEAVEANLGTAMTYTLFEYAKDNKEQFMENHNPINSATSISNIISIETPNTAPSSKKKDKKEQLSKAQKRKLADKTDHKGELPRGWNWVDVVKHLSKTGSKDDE
UniProt Q96GA7: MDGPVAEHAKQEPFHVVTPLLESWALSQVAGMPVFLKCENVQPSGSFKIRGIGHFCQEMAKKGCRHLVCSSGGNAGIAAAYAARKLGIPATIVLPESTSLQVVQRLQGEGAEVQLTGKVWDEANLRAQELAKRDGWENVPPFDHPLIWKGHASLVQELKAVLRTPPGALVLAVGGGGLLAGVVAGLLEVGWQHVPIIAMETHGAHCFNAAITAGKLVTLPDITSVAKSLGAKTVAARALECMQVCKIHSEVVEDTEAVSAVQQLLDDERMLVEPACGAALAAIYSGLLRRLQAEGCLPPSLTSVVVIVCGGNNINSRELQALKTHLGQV
UniProt Q15437: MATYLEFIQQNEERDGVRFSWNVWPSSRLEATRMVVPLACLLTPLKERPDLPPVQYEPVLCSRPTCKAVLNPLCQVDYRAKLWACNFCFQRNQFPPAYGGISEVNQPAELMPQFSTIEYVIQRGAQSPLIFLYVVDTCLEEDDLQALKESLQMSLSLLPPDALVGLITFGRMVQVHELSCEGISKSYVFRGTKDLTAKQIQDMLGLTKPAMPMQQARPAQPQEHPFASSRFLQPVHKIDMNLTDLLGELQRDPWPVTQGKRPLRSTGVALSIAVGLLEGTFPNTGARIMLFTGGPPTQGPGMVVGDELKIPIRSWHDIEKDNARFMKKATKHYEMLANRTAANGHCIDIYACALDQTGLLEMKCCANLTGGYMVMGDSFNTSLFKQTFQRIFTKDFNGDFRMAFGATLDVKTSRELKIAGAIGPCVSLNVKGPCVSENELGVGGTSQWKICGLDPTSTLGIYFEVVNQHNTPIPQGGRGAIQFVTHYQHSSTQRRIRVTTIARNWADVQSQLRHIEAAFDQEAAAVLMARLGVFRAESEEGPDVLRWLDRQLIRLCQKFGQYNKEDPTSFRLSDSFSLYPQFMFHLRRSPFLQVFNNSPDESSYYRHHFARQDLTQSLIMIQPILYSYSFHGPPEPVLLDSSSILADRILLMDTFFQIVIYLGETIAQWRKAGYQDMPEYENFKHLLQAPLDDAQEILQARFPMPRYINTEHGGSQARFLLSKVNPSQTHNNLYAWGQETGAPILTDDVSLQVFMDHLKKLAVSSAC
UniProt O00442: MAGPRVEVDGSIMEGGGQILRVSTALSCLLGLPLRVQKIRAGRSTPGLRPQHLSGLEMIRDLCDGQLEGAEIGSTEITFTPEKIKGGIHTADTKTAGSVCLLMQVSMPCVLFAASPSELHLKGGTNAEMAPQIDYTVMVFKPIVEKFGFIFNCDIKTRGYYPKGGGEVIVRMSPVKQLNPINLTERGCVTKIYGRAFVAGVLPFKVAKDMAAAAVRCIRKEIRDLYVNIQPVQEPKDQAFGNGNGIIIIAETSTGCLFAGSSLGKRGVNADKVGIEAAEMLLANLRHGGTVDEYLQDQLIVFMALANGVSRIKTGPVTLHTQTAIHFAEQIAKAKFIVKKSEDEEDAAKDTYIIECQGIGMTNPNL
UniProt Q99590: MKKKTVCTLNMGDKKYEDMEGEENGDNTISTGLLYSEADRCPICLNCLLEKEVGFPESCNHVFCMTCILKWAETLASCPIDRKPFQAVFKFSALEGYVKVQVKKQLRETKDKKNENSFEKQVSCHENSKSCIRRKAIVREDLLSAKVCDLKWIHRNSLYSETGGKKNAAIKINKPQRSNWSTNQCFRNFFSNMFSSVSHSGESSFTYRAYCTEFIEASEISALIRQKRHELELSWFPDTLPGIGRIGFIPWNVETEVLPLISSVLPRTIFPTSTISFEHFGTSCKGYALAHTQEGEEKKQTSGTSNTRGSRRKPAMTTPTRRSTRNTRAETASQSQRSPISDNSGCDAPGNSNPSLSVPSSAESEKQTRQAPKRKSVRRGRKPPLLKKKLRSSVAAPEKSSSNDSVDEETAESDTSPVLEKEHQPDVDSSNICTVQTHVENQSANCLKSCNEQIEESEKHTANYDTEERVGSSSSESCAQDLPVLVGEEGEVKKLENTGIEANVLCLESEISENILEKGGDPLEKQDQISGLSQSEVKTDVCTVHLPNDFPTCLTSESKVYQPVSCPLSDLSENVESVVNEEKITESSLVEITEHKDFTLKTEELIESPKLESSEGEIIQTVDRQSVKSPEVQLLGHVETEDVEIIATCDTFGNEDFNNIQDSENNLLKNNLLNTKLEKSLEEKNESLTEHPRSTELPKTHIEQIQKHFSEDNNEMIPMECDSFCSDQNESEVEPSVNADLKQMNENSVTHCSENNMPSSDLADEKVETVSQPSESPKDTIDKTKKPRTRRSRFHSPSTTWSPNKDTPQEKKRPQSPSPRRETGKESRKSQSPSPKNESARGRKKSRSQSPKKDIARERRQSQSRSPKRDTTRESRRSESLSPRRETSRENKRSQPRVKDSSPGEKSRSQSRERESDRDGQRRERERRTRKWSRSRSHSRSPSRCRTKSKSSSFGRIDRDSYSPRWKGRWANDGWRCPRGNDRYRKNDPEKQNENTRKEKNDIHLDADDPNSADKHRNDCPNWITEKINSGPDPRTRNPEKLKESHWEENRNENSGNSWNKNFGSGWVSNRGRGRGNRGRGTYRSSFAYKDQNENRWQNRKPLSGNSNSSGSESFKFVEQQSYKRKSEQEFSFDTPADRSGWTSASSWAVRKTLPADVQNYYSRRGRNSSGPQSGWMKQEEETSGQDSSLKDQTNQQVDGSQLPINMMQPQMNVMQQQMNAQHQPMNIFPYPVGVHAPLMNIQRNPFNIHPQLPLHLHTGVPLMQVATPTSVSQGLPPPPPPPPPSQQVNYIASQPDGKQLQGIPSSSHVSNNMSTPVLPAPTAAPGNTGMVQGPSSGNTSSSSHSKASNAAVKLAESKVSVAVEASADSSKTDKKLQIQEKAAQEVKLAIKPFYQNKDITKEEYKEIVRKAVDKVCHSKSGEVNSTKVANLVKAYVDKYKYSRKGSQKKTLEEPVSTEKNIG
UniProt Q9BY50: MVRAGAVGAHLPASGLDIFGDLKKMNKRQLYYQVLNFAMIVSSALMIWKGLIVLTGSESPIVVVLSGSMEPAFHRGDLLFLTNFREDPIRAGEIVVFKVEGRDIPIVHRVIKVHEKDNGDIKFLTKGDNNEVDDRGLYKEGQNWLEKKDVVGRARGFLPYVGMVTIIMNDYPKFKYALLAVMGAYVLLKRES
UniProt P21912: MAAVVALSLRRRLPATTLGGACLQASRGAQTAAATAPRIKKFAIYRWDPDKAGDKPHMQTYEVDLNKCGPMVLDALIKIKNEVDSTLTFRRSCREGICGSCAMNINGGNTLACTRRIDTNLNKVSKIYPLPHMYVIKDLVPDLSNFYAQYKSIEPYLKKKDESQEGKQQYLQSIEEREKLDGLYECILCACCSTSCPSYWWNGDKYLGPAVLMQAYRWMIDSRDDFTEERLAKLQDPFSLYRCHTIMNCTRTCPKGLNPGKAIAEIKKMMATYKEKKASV
UniProt O95197: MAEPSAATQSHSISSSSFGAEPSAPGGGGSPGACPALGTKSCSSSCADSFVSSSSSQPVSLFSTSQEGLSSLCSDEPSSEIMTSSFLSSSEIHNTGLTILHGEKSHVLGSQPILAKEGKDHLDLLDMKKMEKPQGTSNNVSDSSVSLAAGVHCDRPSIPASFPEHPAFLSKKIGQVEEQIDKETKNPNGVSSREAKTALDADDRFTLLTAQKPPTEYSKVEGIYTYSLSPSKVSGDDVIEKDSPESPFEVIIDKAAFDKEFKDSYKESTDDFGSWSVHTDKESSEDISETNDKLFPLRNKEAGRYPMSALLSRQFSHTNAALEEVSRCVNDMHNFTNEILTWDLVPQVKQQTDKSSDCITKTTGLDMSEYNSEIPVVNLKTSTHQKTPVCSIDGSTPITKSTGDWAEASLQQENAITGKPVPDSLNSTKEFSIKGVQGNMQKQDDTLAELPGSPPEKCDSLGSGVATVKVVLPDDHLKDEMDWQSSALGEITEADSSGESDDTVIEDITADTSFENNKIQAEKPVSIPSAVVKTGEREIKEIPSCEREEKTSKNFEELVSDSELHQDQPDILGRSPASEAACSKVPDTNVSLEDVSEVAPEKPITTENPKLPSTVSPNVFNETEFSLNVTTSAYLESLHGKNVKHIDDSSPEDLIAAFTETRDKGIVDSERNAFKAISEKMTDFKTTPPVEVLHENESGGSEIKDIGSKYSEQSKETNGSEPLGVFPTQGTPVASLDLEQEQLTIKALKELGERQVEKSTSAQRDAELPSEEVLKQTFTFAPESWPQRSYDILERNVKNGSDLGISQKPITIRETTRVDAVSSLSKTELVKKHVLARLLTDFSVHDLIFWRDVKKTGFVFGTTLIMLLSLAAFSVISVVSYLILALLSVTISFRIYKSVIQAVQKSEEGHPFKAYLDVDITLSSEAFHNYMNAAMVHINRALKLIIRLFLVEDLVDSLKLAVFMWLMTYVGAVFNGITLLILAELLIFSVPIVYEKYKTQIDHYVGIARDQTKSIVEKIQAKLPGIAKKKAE
UniProt Q8N488: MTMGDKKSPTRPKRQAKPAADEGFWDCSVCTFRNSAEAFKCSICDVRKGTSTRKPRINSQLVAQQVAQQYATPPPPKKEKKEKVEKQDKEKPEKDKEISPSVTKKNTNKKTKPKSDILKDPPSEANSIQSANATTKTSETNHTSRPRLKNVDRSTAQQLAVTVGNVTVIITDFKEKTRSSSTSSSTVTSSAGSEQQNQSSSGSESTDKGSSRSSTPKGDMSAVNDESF
UniProt Q9NR31: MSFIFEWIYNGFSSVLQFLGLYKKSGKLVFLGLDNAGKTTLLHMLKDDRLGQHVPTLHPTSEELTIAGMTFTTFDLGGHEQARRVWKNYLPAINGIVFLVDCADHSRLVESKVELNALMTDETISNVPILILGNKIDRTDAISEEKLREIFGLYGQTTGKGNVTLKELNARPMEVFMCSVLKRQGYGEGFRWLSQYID
UniProt Q96KG9: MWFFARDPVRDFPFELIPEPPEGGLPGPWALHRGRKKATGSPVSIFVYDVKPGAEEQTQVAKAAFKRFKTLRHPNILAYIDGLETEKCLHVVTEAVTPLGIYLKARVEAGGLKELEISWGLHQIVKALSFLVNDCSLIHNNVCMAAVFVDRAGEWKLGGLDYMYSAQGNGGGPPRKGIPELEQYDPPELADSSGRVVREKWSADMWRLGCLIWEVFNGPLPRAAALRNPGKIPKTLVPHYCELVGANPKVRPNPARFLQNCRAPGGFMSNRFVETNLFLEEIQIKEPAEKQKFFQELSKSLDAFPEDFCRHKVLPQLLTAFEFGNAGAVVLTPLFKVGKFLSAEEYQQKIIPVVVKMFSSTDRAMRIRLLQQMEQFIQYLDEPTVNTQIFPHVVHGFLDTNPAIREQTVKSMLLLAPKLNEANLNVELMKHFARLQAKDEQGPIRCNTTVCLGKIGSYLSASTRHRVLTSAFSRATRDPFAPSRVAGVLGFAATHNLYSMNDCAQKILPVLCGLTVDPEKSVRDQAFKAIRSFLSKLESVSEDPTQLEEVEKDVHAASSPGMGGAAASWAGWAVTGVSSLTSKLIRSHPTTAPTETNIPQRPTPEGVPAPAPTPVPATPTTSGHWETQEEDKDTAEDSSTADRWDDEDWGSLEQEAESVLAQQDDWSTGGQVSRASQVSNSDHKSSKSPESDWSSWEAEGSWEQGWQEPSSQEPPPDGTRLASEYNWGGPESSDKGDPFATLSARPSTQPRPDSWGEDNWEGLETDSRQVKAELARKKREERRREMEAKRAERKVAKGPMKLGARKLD
UniProt Q8WTV0: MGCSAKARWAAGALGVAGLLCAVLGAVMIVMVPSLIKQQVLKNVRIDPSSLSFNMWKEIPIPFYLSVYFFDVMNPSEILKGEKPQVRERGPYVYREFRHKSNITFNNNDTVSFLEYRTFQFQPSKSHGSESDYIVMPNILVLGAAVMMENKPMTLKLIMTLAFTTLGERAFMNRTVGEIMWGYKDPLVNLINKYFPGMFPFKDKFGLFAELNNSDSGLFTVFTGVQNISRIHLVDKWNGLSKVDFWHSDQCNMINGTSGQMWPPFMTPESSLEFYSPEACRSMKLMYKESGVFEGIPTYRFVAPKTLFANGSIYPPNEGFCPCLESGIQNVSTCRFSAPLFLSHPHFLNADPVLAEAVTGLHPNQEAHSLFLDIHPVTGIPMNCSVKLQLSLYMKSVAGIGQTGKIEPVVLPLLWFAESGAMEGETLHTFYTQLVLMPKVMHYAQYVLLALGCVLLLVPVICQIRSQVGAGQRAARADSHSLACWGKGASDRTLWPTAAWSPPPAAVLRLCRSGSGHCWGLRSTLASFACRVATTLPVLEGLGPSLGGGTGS
UniProt P31949: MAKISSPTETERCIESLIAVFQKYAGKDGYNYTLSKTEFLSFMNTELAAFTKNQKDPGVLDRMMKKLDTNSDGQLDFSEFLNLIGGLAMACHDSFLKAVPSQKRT

Key:
Test in all cases: log2 fold change, soluble protein after heating vs DMSO (PISA); higher = thermal stabilisation; K562 cells, 10 uM, 30 min; active = over 0.2 and 3.5 SD of the protein, either way, in both replicates (recomputed)
saracatinib = compound: CN1CCN(CCOc2cc(OC3CCOCC3)c3c(Nc4c(Cl)ccc5c4OCO5)ncnc3c2)CC1 [saracatinib]
In short: (§1)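 K562 cells at 2×10^6 cells/mL were treated with 10 μM compound for 30 min. Aliquots were heated for 3 min across 48°C-58°C, pooled, and extracted in PBS with 0.5% NP-40 at 4°C; soluble protein was the supernatant after 21,000xg for 90 min. Soluble protein was quantified by TMTpro 16plex LC-MS/MS with channel sums equalised, and reported as log2 fold change in thermal stability against DMSO controls, with values from duplicates.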

sotrastaurin = compound: CN1CCN(c2nc(C3=C(c4c[nH]c5ccccc45)C(=O)NC3=O)c3ccccc3n2)CC1 [sotrastaurin]
In short: as §1

alvocidib = compound: CN1CC[C@H](c2c(O)cc(O)c3c(=O)cc(-c4ccccc4Cl)oc23)[C@H](O)C1 [alvocidib]
In short: as §1

Tubastatin A = compound: CN1CCc2c(c3ccccc3n2Cc2ccc(C(=O)NO)cc2)C1 [Tubastatin A]
In short: as §1

[1] = compound: CNC(=O)C1=CC=CC=C1NC2=NC(=NC=C2Cl)NC3=C(C=C(C=C3)N4CCOCC4)OC
In short: as §1

defactinib = compound: CNC(=O)c1ccc(Nc2ncc(C(F)(F)F)c(NCc3nccnc3N(C)S(C)(=O)=O)n2)cc1 [defactinib]
In short: as §1

rucaparib = compound: CNCc1ccc(-c2[nH]c3cc(F)cc4c3c2CCNC4=O)cc1 [rucaparib]
In short: as §1

[2] = compound: CNc1nc(-c2ccc3c(N)n[nH]c3c2)cc(N2C[C@@H](C(=O)NC3CCCCC3)CC[C@H]2C)n1
In short: as §1

encorafenib = compound: COC(=O)N[C@@H](C)CNc1nccc(-c2cn(C(C)C)nc2-c2cc(Cl)cc(NS(C)(=O)=O)c2F)n1 [encorafenib]
In short: as §1

[3] = compound: COC(=O)[C@H](CCSC)NC(=O)C1=C(C=C(C=C1)NC[C@H](CS)N)C2=CC=CC=C2
In short: as §1

[4] = compound: COC1=CC=C(C=C1)CN2C=CC3=C2C=C(C=C3)C(=O)NO
In short: as §1

filanesib = compound: CON(C)C(=O)N1N=C(c2cc(F)ccc2F)S[C@@]1(CCCN)c1ccccc1 [filanesib]
In short: as §1

zotarolimus = compound: CO[C@H]1C[C@@H]2CC[C@@H](C)[C@@](O)(O2)C(=O)C(=O)N2CCCC[C@H]2C(=O)O[C@H]([C@H](C)C[C@@H]2CC[C@H](n3cnnn3)[C@H](OC)C2)CC(=O)[C@H](C)/C=C(\C)[C@@H](O)[C@@H](OC)C(=O)[C@H](C)C[C@H](C)/C=C/C=C/C=C/1C [zotarolimus]
In short: as §1

idasanutlin = compound: COc1cc(C(=O)O)ccc1NC(=O)[C@@H]1N[C@@H](CC(C)(C)C)[C@](C#N)(c2ccc(Cl)cc2F)[C@H]1c1cccc(Cl)c1F [idasanutlin]
In short: as §1

alisertib = compound: COc1cc(Nc2ncc3c(n2)-c2ccc(Cl)cc2C(c2c(F)cccc2OC)=NC3)ccc1C(=O)O [alisertib]
In short: as §1

[5] = compound: COc1cc2nc(-c3cc(F)ccc3O)nc(N[C@@H]3CNC[C@H]3C(C)(C)O)c2cc1OC
In short: as §1

gefitinib = compound: COc1cc2ncnc(Nc3ccc(F)c(Cl)c3)c2cc1OCCCN1CCOCC1 [gefitinib]
In short: as §1

[6] = compound: COc1cccc2cc(-c3nc([C@H]4CC[C@H](C(=O)O)CC4)n4ncnc(N)c34)[nH]c12
In short: as §1

lapatinib = compound: CS(=O)(=O)CCNCc1ccc(-c2ccc3ncnc(Nc4ccc(OCc5cccc(F)c5)c(Cl)c4)c3c2)o1 [lapatinib]
In short: as §1

pictilisib = compound: CS(=O)(=O)N1CCN(Cc2cc3nc(-c4cccc5[nH]ncc45)nc(N4CCOCC4)c3s2)CC1 [pictilisib]
In short: as §1

Measured: log2 fold change

RWDD4 (UniProt Q6NW29)
inactive: saracatinib -0.114 | sotrastaurin -0.164 | alvocidib -0.02 | Tubastatin A 0.003 | [1] 0.047 | defactinib -0.036 | rucaparib 0.047 | [2] -0.041 | encorafenib 0.127 | [3] -0.005 | [4] -0.028 | filanesib 0.044 | zotarolimus -0.038 | idasanutlin -0.039 | alisertib -0.158 | [5] 0.014 | gefitinib 0.052 | [6] 0 | lapatinib -0.038 | pictilisib 0.097

SEC11A isoform 3 (UniProt P67812)
inactive: saracatinib 0.012 | sotrastaurin 0.037 | alvocidib 0.039 | Tubastatin A 0.012 | [1] 0.022 | defactinib 0.028 | rucaparib -0.03 | [2] -0.012 | encorafenib 0.052 | [3] -0.048 | [4] -0.09 | filanesib -0.015 | zotarolimus -0.003 | idasanutlin -0.046 | alisertib -0.073 | [5] 0.022 | gefitinib 0.004 | [6] 0.013 | lapatinib 0.056 | pictilisib -0.072

SDSL (UniProt Q96GA7)
inactive: saracatinib 0.086 | sotrastaurin 0.017 | alvocidib -0.057 | Tubastatin A -0.046 | [1] -0.005 | defactinib -0.001 | rucaparib -0.058 | [2] -0.104 | encorafenib -0.017 | [3] 0.002 | [4] 0.065 | filanesib -0.005 | zotarolimus -0.015 | idasanutlin -0.039 | alisertib -0.024 | [5] -0.015 | gefitinib 0.049 | [6] 0.057 | lapatinib -0.004 | pictilisib 0.082

SEC23B (UniProt Q15437)
inactive: saracatinib -0.013 | sotrastaurin 0 | alvocidib -0.075 | Tubastatin A -0.001 | [1] 0.017 | defactinib -0.053 | rucaparib 0.03 | [2] -0.007 | encorafenib 0.015 | [3] -0.022 | [4] 0.048 | filanesib -0.045 | zotarolimus -0.012 | idasanutlin -0.007 | alisertib 0.04 | [5] 0.029 | gefitinib 0.007 | [6] -0.007 | lapatinib -0.032 | pictilisib 0.007

RTCA (UniProt O00442)
inactive: saracatinib 0.051 | sotrastaurin -0.003 | alvocidib -0.036 | Tubastatin A -0.011 | [1] 0.025 | defactinib -0.014 | rucaparib 0.022 | [2] -0.054 | encorafenib 0.002 | [3] -0.01 | [4] 0.004 | filanesib -0.043 | zotarolimus -0.001 | idasanutlin -0.036 | alisertib -0.09 | [5] 0.025 | gefitinib 0.011 | [6] 0.01 | lapatinib 0.005 | pictilisib 0.036

SCAF11 (UniProt Q99590)
active: alvocidib 1.25 | defactinib 0.579
inactive: saracatinib 0.075 | sotrastaurin 0.227 | Tubastatin A -0.052 | [1] -0.077 | rucaparib 0.35 | [2] -0.052 | encorafenib 0.042 | [3] 0.188 | [4] 0.365 | filanesib 0.141 | zotarolimus -0.029 | idasanutlin 0.054 | alisertib -0.1 | [5] -0.028 | gefitinib -0.013 | [6] -0.071 | lapatinib 0.156 | pictilisib -0.382

SEC11C (UniProt Q9BY50)
inactive: saracatinib -0.066 | sotrastaurin 0 | alvocidib 0.031 | Tubastatin A 0.005 | [1] -0.061 | defactinib 0.012 | rucaparib 0.002 | [2] -0.002 | encorafenib 0.057 | [3] -0.041 | [4] -0.034 | filanesib -0.083 | zotarolimus -0.001 | idasanutlin -0.119 | alisertib -0.028 | [5] 0.056 | gefitinib -0.048 | [6] 0 | lapatinib -0.019 | pictilisib -0.002

SDHB (UniProt P21912)
inactive: saracatinib 0.032 | sotrastaurin 0.02 | alvocidib 0.021 | Tubastatin A -0.045 | [1] 0.013 | defactinib 0.006 | rucaparib -0.017 | [2] -0.067 | encorafenib -0.014 | [3] 0.029 | [4] 0.013 | filanesib -0.051 | zotarolimus 0.011 | idasanutlin 0.074 | alisertib -0.126 | [5] -0.047 | gefitinib 0.014 | [6] 0.004 | lapatinib -0.004 | pictilisib 0.058

SCIN (UniProt Q9Y6U3)
inactive: saracatinib -0.031 | sotrastaurin -0.221 | alvocidib -0.102 | Tubastatin A -0.053 | [1] 0.012 | defactinib -0.035 | rucaparib 0.191 | [2] 0.106 | encorafenib 0.055 | [3] -0.042 | [4] 0.002 | filanesib 0.027 | zotarolimus 0.021 | idasanutlin 0.011 | alisertib -0.121 | [5] -0.038 | gefitinib -0.149 | [6] -0.085 | lapatinib 0.06 | pictilisib 0.114

SBNO1 (UniProt A3KN83)
inactive: saracatinib 0.058 | sotrastaurin 0.017 | alvocidib -0.016 | Tubastatin A -0.032 | [1] 0.037 | defactinib -0.019 | rucaparib 0.004 | [2] 0.008 | encorafenib 0.02 | [3] -0.03 | [4] 0.033 | filanesib -0.025 | zotarolimus 0.012 | idasanutlin -0.011 | alisertib -0.031 | [5] 0.083 | gefitinib -0.001 | [6] -0.026 | lapatinib 0.015 | pictilisib 0.036

RTN3 (UniProt O95197)
inactive: saracatinib -0.051 | sotrastaurin 0.05 | alvocidib -0.059 | Tubastatin A 0.001 | [1] -0.011 | defactinib 0.001 | rucaparib -0.116 | [2] -0.015 | encorafenib 0.009 | [3] 0.014 | [4] -0.02 | filanesib 0.014 | zotarolimus 0.001 | idasanutlin 0.051 | alisertib 0.025 | [5] -0.037 | gefitinib 0.013 | [6] 0.065 | lapatinib -0.039 | pictilisib 0.052

Fetched one by one from the list above (2):
RTN3 (UniProt O95197)
inactive: saracatinib -0.051 | sotrastaurin 0.05 | alvocidib -0.059 | Tubastatin A 0.001 | [1] -0.011 | defactinib 0.001 | rucaparib -0.116 | [2] -0.015 | encorafenib 0.009 | [3] 0.014 | [4] -0.02 | filanesib 0.014 | zotarolimus 0.001 | idasanutlin 0.051 | alisertib 0.025 | [5] -0.037 | gefitinib 0.013 | [6] 0.065 | lapatinib -0.039 | pictilisib 0.052

SDHB (UniProt P21912)
inactive: saracatinib 0.032 | sotrastaurin 0.02 | alvocidib 0.021 | Tubastatin A -0.045 | [1] 0.013 | defactinib 0.006 | rucaparib -0.017 | [2] -0.067 | encorafenib -0.014 | [3] 0.029 | [4] 0.013 | filanesib -0.051 | zotarolimus 0.011 | idasanutlin 0.074 | alisertib -0.126 | [5] -0.047 | gefitinib 0.014 | [6] 0.004 | lapatinib -0.004 | pictilisib 0.058

Additional entries:

RYBP (UniProt Q8N488)
inactive: saracatinib 0.076 | sotrastaurin 0.006 | alvocidib 0.134 | Tubastatin A -0.064 | [1] 0.023 | defactinib -0.031 | rucaparib -0.038 | [2] -0.016 | encorafenib 0.009 | [3] 0.035 | [4] -0.066 | filanesib -0.01 | zotarolimus -0.002 | idasanutlin 0.148 | alisertib -0.048 | [5] -0.11 | gefitinib 0.089 | [6] 0.003 | lapatinib 0.033 | pictilisib -0.025

SAR1A (UniProt Q9NR31)
inactive: saracatinib 0.022 | sotrastaurin -0.058 | alvocidib 0.109 | Tubastatin A -0.047 | [1] 0.03 | defactinib 0.017 | rucaparib -0.014 | [2] -0.072 | encorafenib 0.012 | [3] -0.011 | [4] 0.101 | filanesib -0.087 | zotarolimus -0.031 | idasanutlin -0.068 | alisertib -0.033 | [5] 0.037 | gefitinib 0.009 | [6] 0.01 | lapatinib -0.025 | pictilisib 0.016

SCYL1 (UniProt Q96KG9)
inactive: saracatinib 0.012 | sotrastaurin -0.017 | alvocidib -0.03 | Tubastatin A -0.004 | [1] -0.017 | defactinib -0.061 | rucaparib -0.013 | [2] -0.004 | encorafenib 0.05 | [3] 0.018 | [4] 0.045 | filanesib -0.026 | zotarolimus 0.019 | idasanutlin -0.039 | alisertib -0.027 | [5] 0.011 | gefitinib 0.007 | [6] 0.006 | lapatinib 0.005 | pictilisib -0.032

SCARB1 isoform 2 (UniProt Q8WTV0)
inactive: saracatinib -0.018 | sotrastaurin 0.046 | alvocidib -0.029 | Tubastatin A -0.009 | [1] -0.021 | defactinib -0.022 | rucaparib -0.005 | [2] -0.037 | encorafenib 0.026 | [3] 0.016 | [4] 0.054 | filanesib -0.099 | zotarolimus -0.023 | idasanutlin -0.036 | alisertib -0.056 | [5] -0.071 | gefitinib -0.01 | [6] 0.087 | lapatinib 0.011 | pictilisib 0.061

S100A11 (UniProt P31949)
inactive: saracatinib -0.026 | sotrastaurin 0.025 | alvocidib 0.03 | Tubastatin A -0.044 | [1] -0.018 | defactinib 0.002 | rucaparib 0.009 | [2] -0.017 | encorafenib -0.062 | [3] -0.05 | [4] 0.057 | filanesib -0.026 | zotarolimus 0.043 | idasanutlin -0.028 | alisertib -0.056 | [5] -0.049 | gefitinib 0.02 | [6] 0.065 | lapatinib 0.025 | pictilisib 0
